Experimental data: PubChem BioAssay AID504648 (National Center for Advancing Translational Sciences (NCATS), 2011)
Hit rate of the full screen: of about 390,000 compounds, about 610 (0.16%) were called active. Inconclusive results, whose numbers are uncertain, are shown with a selection of clear calls. Calls follow the shape of the dose curve; as a rule, active = well fitted inhibition curve with a large enough effect; inconclusive = small, poorly fitted or top-dose-only effect, or effect the other way, or another doubt; inactive = no such curve, though single readings can be large or run the other way. Where the call is inconclusive, the potency comes from a doubtful curve fit.

Assay: Nrf2 qHTS screen for inhibitors: counterscreen for cytotoxicity
Conditions: A549 ARE-Fluc cells, CellTiter-Fluor viability, 18-24 h; activity change, negative = cytotoxicity: at 46 µM (top of the series)
How it was run: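 A549 ARE_Fluc cells in 5% FBS OPTI-MEM were exposed to compounds in concentration-response for 18-24 h at 37 deg C. Viability was read by CellTiter-Fluor fluorescence (Ex 405/Em 525) after 30 min, before the luciferase read.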
% is scaled to controls: 0 for no effect and ±100 for the full control effect; potency is read from the fitted curve at half-maximal effect.

Structure (SMILES)	Potency	activity change, negative = cytotoxicity
O=C1c2cccc3cc([N+](=O)[O-])cc(c23)C(=O)N1CCN1CCCC1	inconclusive: 4.61 µM [falling, partial curve, poor fit]	–
CC(=NNC(=S)N1CCCCC1)c1cccc(C)n1	inconclusive: 8.2 µM [falling, partial curve]	–
CCC1CCCCN1CCCNC(=O)c1ccc2c(c1)N(Cc1ccccc1F)C(=O)c1ccccc1S2(=O)=O (stereo not drawn)	inconclusive: 20.6 µM [falling, partial curve, poor fit]	–
CCCCc1nn2c(=O)cc(COC(=O)c3ccc(NC(=O)c4cccs4)cc3)nc2s1	–	inconclusive: -53% [activator]
Cc1ccc(OC(C)C(=O)N2CC(=O)Nc3ccccc32)cc1 (stereo not drawn)	–	inactive: 0.623%
Cn1c(CNC(=O)CSc2n[nH]c(-c3ccccc3)n2)nc2ccccc21	inconclusive: 29.1 µM [falling, partial curve, poor fit]	–
C=C1CCN(C(C(=O)O)C(C)C)S(=O)(=O)c2ccccc21 (stereo not drawn)	–	inactive: -4.59%
Cc1sc2c(c1C)c(=O)n(-c1ccccc1)c(=O)n2CC(=O)c1ccc(Cl)cc1	inconclusive: 16.4 µM [falling, partial curve, poor fit]	–
COc1ccc2cc3c(N)nn(C(=O)c4ccc(F)cc4)c3nc2c1	–	inactive: -25.6%
O=[N+]([O-])c1cc(-c2nc(-c3ccccc3)no2)ccc1N1CCCC1	–	inactive: 2.44%
COc1cccc(-c2ccc(NC(=O)C3CCCN(Cc4cc(C)[nH]n4)C3)cc2)c1 (stereo not drawn)	–	inactive: -8.42%
Cc1ccc(/C=[N+](\[O-])c2ccc(N(C)C)cc2)c2nsnc12	–	inactive: -26.6%
Cc1cccc(C(=O)NCC(=O)OCC(=O)N2CCCCC2)c1	inconclusive: 32.6 µM [falling, partial curve, poor fit]	–
CNC(=O)c1sc2nc(-c3ccc(OC)cc3)cn2c1C	inconclusive: 6.51 µM [activator, partial curve, poor fit]	–
Nc1c(C(=O)NCc2ccc(F)cc2)c2nc3ccccc3nc2n1CCCN1CCOCC1	inconclusive: 20.6 µM [falling, partial curve]	–
Cc1cnc(NC(=O)C(C)N2CCN(C)CC2)s1 (stereo not drawn)	inconclusive: 11.6 µM [falling, partial curve, poor fit]	–
O=C(c1cc([N+](=O)[O-])ccc1N1CCOCC1)N1CCOCC1	inconclusive: 14.6 µM [falling, partial curve, poor fit]	–
Cc1ccc(-c2[nH]nc(N)c2N=Nc2ccccc2C)cc1	inconclusive: 16.4 µM [falling, partial curve, poor fit]	–
COc1ccc(N2CCN(CCCNC(=O)c3ccc4nc(CCc5ccccc5)oc4c3)CC2)cc1	inconclusive: 32.6 µM [falling, partial curve, poor fit]	–
CC(OC1=CC(=O)CCC1)C(=O)c1ccccc1 (stereo not drawn)	inconclusive: 23.1 µM [activator, partial curve, poor fit]	–
O=C(c1ccc2c(c1)N(Cc1ccc(F)cc1)CCS2)N1CCN(c2ccccc2)CC1	inconclusive: 25.9 µM [falling, partial curve, poor fit]	–

Structure (SMILES)	Potency	activity change, negative = cytotoxicity
COc1cc(C2C(C#N)=C(N)N(Nc3ccccc3)C3=C2C(=O)CC(C)(C)C3)ccc1OCc1cccc(F)c1 (stereo not drawn)	inconclusive: 18.4 µM [falling, single point]	–
COc1ccc2c(c1)CC(C(=O)NCCN1CCN(c3cccc(Cl)c3)CC1)CO2 (stereo not drawn)	–	inactive: -3.17%
Nc1nc2c(ccc3ccccc32)s1	inconclusive: 6.51 µM [activator, partial curve, poor fit]	–
CCc1cccc(NC(=O)CCCSc2nc3ccccc3[nH]2)c1	inconclusive: 6.51 µM [falling, single point]	–
O=c1[nH]c(=O)c2nnc(N/N=C\c3ccc(O)cc3)nc2[nH]1	inconclusive: 29.1 µM [falling, partial curve, poor fit]	–
COC(=O)Nc1nc(-c2ccccc2)c(C(=O)c2ccc(Cl)cc2)s1	inconclusive: 1.84 µM [falling, full curve]	–
COc1ccc(N=NC2C(=O)N(c3ccccc3)N=C2C)cc1 (stereo not drawn)	inconclusive: 16.4 µM [falling, partial curve, poor fit]	–
Cc1ccc(Oc2ccccc2/C=C2\SC(=O)N(C)C2=O)cc1	inconclusive: 3.26 µM [falling, partial curve, poor fit]	–
CN(C)CCOC(c1ccc(Cl)cc1)c1ccccn1 (stereo not drawn)	inactive	–
Oc1ccc(N2CCN(Cc3ccc(OCCCN4CCCCC4)cc3)CC2)cc1	inconclusive: 25.9 µM [falling, partial curve, poor fit]	–
CCCOc1ccc2c3c(c(=O)oc2c1OCCC)CCCC3	inconclusive: 18.4 µM [activator, partial curve, poor fit]	–
S=C(NCCN1CCOCC1)N/N=C/c1cccs1	inconclusive: 23.1 µM [falling, partial curve, poor fit]	–
O=C1CCc2ccc(OCCCCN3CCN(c4cccc(Cl)c4Cl)CC3)cc2N1	inconclusive: 29.1 µM [falling, single point]	–
COc1cc(/C=C2\COC/C(=C\c3ccc(O)c(OC)c3)C2=O)ccc1O	inconclusive: 20.6 µM [falling, single point]	–
COc1ccc(N2CCN(CCCNC(=O)C3CCC(CNc4nc(=S)[nH]c5ccccc45)CC3)CC2)cc1 (stereo not drawn)	inconclusive: 18.4 µM [falling, partial curve, poor fit]	–
Cc1ccnc2c1ccc1cccnc12	inconclusive: 8.2 µM [falling, partial curve]	–
CCc1cc2c(=O)c(-c3ccc4c(c3)OCCO4)coc2cc1OS(C)(=O)=O	inconclusive: 16.4 µM [falling, single point]	–
Cc1cc(C)nc(SCc2ccc(C(=O)NNC(=O)Nc3cccc(Cl)c3)cc2)n1	inconclusive: 23.1 µM [falling, single point]	–
COC(=O)c1sc2ccccc2c1-n1cccc1C(=O)C(=O)Nc1ccc(OC)cc1	inconclusive: 9.2 µM [falling, partial curve, poor fit]	–
O=C(Cn1c(-c2cccs2)cc2ccccc21)NCCCN1CCN(c2ccc(F)cc2)CC1	inconclusive: 16.4 µM [falling, single point]	–
OCC1(Cc2ccc(F)cc2F)CCCN(Cc2ccc(Cl)cc2)C1 (stereo not drawn)	inconclusive: 20.6 µM [falling, single point]	–

Structure (SMILES)	Potency	activity change, negative = cytotoxicity
COc1ccc(N(Cc2ccccc2)S(=O)(=O)c2cccc(C(=O)Nc3ccccn3)c2)cc1	–	inactive: -12.1%
CCN(c1ccccc1)S(=O)(=O)c1cc(C(=O)Nc2cccc(Cl)c2)ccc1F	inconclusive: 32.6 µM [falling, partial curve, poor fit]	–
CCc1ccc2[nH]c(=O)c(C(c3nnnn3CC3CCCO3)N3CCCc4ccccc43)cc2c1 (stereo not drawn)	inconclusive: 11.6 µM [falling, single point]	–
CCOc1ccc2[nH]c3c(NCCCOC)ncnc3c2c1	–	inactive: 9.62%
CCN1CCN(C(=O)c2ccc(CS(=O)(=O)Cc3ccccc3F)o2)CC1	inconclusive: 32.6 µM [activator, partial curve, poor fit]	–
Cc1ccc(-c2cnc(SCC(=O)N3CCCc4ccccc43)n2C)cc1	–	inactive: -7.15%
CNS(=O)(=O)c1cccc(C(=O)OCc2cc(C(C)=O)ccc2OC)c1	–	inactive: -3.51%
Cc1nc(NC(=O)c2ccccc2)sc1-c1csc(N)n1	inconclusive: 16.4 µM [falling, partial curve, poor fit]	–
COc1ccc(C2=CC(c3ccco3)n3ncnc3N2)cc1 (stereo not drawn)	inconclusive: 18.4 µM [activator, single point]	–
COc1ccc(C2/C(=C(/O)c3ccccc3)C(=O)C(=O)N2CO)cc1 (stereo not drawn)	inconclusive: 20.6 µM [falling, partial curve, poor fit]	–
CCc1nc(SCc2nc3ccccc3[nH]2)c2oc3ccccc3c2n1	inconclusive: 16.4 µM [falling, single point]	–
O=C(Nc1nccs1)c1cc(Cl)ccc1[N+](=O)[O-]	inconclusive: 23.1 µM [activator, partial curve, poor fit]	–
NC(=O)C1CCN(c2nc(C3CC3)nc3c2nnn3Cc2ccccc2Cl)CC1	–	inactive: -1.92% [at 1.84 µM]
c1ccc2c(-c3csc(-c4ccncc4)n3)c[nH]c2c1	–	inactive: 9.01%
CCOc1ccc(CCN2C(=S)N([C@@H](CC(C)C)CN3CCCC3CN3C(=S)NC[C@@H]3Cc3ccc(O)cc3)C[C@@H]2Cc2ccccc2)cc1 (stereo partly drawn)	–	inactive: 4.24%
Oc1ccc(/C=C/c2nc(-c3ccccc3O)n(-c3ccccc3)n2)cc1	inconclusive: 11.6 µM [falling, partial curve, poor fit]	–
COC(=O)CCN1CCC2CC1c1cc(Cl)ccc12 (stereo not drawn)	inconclusive: 20.6 µM [activator, partial curve, poor fit]	–
COc1ccc(C(=O)CC2(O)C(=O)N(CCc3ccccc3)c3ccc(Br)cc32)cc1OC (stereo not drawn)	inconclusive: 32.6 µM [falling, partial curve, poor fit]	–
O=[N+]([O-])c1cc([N+](=O)[O-])c2nonc2c1Nc1ccccc1O	inconclusive: 18.4 µM [falling, partial curve, poor fit]	–
Cc1ccccc1-c1nc(CN2CCC(C(=O)NCCCN3CCCC(C)C3)CC2)c(C)o1 (stereo not drawn)	inconclusive: 29.1 µM [falling, partial curve, poor fit]	–
CC(=O)Nc1ccc(S(=O)(=O)NC2=C(N3CCN(c4ccc(F)cc4)CC3)C(=O)c3ccccc3C2=O)cc1	inconclusive: 23.1 µM [falling, single point]	–

Rewritten with bars between the fields: entries from further up.
Structure (SMILES) | Potency | activity change, negative = cytotoxicity
CCOc1ccc2[nH]c3c(NCCCOC)ncnc3c2c1 | – | inactive: 9.62%
CCN1CCN(C(=O)c2ccc(CS(=O)(=O)Cc3ccccc3F)o2)CC1 | inconclusive: 32.6 µM [activator, partial curve, poor fit] | –
Cc1ccc(-c2cnc(SCC(=O)N3CCCc4ccccc43)n2C)cc1 | – | inactive: -7.15%
